Laboratory results: the supplement of paper PMC10849652
Some of the results follow.

By UniProt entry, the sequences of proteins in these tests, tags left out. Where a name states a change or a piece, a line headed by the entry shows the natural chain unless it says otherwise.
UniProt Q9Y5K8, whole entry, looked up: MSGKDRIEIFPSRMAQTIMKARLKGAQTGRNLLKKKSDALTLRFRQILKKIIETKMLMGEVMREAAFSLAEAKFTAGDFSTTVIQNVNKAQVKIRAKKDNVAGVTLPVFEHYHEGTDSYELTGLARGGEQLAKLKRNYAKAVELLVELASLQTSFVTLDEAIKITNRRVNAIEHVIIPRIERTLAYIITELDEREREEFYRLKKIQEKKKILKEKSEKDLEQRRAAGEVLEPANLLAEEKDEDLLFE
UniProt Q9Y575: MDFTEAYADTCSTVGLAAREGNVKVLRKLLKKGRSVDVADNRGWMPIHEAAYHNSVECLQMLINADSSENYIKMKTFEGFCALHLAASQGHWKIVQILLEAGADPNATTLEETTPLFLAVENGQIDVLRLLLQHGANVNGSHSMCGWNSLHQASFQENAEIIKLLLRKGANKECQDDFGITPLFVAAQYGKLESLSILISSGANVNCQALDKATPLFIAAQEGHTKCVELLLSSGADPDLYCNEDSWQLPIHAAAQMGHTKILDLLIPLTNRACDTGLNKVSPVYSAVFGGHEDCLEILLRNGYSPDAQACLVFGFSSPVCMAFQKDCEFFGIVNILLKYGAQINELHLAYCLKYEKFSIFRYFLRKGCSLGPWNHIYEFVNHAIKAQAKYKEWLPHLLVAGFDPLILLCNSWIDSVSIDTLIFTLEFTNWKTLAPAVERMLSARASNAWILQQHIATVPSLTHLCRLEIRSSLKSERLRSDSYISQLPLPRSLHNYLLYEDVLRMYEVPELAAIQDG
UniProt Q9NVP2, whole entry, looked up: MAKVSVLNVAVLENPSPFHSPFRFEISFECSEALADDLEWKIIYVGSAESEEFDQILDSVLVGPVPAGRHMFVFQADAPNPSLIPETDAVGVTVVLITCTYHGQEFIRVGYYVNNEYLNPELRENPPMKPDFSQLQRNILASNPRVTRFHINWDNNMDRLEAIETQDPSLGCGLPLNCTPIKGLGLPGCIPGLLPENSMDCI
UniProt Q5TC12: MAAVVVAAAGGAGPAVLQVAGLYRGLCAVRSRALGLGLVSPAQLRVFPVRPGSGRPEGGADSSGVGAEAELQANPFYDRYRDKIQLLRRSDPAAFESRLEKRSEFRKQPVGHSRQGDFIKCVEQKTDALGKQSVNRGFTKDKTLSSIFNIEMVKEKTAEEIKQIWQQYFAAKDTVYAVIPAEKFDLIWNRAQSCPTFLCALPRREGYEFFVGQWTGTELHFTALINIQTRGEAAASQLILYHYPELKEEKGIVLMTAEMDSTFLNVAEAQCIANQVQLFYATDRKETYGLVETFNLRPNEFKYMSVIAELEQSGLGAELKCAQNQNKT
UniProt Q9NVI7: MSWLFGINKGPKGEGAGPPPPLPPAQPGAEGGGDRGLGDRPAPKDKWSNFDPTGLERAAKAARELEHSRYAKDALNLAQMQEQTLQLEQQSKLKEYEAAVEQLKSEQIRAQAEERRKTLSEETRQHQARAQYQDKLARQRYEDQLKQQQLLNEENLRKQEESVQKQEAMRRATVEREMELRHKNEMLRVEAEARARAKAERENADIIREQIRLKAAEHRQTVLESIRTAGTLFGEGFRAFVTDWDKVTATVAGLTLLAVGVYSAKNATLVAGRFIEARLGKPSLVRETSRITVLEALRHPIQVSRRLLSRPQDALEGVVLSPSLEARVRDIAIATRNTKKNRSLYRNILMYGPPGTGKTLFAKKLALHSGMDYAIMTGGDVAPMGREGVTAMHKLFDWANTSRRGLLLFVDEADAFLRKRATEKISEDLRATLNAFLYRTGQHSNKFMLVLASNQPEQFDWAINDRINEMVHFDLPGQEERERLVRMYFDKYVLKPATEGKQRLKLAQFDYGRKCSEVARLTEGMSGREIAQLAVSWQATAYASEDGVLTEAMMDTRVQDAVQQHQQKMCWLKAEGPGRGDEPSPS
UniProt O94817, whole entry, looked up: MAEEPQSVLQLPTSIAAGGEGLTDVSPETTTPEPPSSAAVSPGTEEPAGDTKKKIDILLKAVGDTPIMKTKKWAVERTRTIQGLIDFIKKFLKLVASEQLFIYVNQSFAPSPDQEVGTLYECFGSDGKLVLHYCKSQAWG
UniProt B2RBV5: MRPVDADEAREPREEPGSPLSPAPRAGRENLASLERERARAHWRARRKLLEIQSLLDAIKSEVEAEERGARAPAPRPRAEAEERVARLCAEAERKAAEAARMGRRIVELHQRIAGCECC
UniProt Q8WWM7: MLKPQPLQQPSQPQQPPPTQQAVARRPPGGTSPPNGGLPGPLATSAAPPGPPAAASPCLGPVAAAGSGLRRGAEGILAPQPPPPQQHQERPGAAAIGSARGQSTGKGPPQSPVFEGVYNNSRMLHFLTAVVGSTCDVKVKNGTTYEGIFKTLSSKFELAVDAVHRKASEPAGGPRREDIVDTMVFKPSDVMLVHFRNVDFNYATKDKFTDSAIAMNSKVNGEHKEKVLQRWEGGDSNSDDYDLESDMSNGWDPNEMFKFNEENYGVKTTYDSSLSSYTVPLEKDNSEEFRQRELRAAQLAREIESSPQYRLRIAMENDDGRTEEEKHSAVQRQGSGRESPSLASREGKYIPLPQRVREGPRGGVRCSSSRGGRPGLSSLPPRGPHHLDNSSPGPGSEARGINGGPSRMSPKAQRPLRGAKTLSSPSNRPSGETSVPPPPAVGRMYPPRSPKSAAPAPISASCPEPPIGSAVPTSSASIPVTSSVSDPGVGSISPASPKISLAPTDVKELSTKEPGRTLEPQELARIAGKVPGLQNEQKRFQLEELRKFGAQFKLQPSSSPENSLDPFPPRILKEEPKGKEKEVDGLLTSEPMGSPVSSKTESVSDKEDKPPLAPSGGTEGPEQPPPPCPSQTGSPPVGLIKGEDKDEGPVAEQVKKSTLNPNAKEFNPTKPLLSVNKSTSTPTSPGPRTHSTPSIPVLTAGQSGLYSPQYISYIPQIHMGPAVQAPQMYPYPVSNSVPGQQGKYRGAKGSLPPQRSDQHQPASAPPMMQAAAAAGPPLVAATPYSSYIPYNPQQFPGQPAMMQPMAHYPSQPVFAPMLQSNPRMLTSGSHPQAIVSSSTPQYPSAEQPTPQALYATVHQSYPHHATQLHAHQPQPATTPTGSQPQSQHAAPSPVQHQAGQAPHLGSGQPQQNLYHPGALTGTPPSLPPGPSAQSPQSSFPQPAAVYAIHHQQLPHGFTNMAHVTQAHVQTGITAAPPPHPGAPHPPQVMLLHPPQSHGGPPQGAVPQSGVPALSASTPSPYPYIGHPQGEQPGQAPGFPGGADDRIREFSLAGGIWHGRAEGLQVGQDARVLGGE
UniProt Q8WXE1: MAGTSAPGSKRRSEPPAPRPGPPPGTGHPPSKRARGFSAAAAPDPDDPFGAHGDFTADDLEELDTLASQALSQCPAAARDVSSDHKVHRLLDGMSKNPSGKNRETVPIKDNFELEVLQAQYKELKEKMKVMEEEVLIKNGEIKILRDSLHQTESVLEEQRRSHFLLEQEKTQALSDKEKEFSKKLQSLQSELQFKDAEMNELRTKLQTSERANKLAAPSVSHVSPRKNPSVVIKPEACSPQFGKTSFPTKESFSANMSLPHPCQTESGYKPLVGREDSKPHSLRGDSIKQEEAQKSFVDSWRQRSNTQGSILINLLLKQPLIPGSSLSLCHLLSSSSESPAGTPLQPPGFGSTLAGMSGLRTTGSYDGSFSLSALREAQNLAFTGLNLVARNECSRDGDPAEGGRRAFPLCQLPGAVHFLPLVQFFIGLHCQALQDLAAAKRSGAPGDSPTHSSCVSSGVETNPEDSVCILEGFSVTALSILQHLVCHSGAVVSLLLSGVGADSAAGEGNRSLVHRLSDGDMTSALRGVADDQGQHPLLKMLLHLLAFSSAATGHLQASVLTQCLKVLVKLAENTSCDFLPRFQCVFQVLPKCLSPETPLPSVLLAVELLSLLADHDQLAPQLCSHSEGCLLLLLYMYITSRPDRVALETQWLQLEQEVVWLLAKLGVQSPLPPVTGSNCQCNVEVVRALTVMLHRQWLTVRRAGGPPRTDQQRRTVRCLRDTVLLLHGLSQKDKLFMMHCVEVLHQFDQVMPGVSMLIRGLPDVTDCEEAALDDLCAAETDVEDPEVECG
UniProt Q2TAZ0: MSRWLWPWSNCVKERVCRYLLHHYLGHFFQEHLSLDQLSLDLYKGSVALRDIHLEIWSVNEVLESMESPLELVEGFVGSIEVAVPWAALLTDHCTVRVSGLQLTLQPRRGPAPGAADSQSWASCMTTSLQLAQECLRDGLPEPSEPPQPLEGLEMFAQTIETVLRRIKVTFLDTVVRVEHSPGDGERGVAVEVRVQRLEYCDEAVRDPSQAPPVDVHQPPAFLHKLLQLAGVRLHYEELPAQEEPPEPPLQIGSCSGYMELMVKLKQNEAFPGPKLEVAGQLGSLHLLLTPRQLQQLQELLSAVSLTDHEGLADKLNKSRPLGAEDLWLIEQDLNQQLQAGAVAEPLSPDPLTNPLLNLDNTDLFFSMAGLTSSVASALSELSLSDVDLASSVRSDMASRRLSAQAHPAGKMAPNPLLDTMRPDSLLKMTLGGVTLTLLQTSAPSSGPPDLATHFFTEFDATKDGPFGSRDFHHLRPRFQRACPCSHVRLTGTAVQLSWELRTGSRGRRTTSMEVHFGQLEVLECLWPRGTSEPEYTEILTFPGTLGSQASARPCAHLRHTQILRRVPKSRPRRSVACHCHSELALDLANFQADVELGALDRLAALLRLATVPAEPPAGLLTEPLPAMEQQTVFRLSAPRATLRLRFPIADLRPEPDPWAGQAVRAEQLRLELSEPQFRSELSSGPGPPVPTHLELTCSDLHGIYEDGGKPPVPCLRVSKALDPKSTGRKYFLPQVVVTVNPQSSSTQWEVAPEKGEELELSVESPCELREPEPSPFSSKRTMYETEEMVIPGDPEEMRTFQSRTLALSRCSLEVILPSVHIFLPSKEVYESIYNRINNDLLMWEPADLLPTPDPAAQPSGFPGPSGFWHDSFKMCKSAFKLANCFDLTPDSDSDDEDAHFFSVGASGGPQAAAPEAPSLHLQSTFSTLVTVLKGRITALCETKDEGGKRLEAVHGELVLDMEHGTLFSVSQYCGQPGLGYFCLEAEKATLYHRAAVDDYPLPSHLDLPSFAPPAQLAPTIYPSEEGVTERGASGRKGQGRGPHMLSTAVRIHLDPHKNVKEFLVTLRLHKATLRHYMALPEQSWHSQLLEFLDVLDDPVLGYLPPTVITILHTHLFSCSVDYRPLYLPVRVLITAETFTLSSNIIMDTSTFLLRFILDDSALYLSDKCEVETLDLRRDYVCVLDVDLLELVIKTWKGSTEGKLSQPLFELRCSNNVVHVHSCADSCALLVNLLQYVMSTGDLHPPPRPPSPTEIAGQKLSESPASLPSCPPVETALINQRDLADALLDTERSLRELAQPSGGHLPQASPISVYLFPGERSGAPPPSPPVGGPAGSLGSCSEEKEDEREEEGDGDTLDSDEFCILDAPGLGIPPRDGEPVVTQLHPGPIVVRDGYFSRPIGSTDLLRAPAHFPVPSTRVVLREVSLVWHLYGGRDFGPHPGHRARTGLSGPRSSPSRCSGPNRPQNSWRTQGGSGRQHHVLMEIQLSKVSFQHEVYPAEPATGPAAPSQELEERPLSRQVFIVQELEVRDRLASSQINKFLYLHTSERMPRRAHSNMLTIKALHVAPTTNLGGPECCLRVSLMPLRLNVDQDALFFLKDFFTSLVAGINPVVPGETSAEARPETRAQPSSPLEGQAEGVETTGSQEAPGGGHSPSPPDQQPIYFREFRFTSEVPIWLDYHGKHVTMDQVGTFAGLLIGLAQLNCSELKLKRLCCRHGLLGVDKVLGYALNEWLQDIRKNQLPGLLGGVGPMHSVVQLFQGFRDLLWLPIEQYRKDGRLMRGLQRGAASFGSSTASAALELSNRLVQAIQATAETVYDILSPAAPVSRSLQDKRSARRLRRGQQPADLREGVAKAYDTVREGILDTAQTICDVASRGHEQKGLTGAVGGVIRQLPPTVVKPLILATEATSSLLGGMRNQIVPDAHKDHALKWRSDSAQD
UniProt Q6DD88: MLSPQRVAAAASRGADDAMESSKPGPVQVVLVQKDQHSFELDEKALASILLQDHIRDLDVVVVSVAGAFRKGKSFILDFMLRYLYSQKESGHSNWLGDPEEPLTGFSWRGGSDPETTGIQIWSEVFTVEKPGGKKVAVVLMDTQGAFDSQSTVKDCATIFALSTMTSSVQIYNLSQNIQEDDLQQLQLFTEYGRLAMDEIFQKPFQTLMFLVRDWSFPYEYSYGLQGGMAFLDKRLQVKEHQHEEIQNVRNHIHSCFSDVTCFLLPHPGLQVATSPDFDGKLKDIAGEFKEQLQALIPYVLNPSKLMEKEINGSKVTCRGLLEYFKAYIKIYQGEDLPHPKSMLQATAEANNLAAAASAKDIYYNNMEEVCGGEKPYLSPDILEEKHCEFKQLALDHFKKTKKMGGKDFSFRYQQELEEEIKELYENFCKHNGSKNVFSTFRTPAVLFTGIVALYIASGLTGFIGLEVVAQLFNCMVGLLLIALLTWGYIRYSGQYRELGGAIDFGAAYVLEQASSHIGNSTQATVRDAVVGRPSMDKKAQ

The targets below were run with C1=CC=C(C=C1)[C@H](COC2=CC3=C(C=C2)NC(=O)N3)NC(=O)C4=CC=CN(C4=O)CC5=CC(=C(C=C5)F)F (assay: log2 fold change, soluble protein after heating vs DMSO (PISA); higher = thermal stabilisation; K562 lysate, 10 uM; active = over 0.2 and 3.5 SD of the protein, either way, in both replicates (recomputed)).
In short: (§1)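 To prepare the extract, K562 pellets were dounce-homogenised in PBS pH 7.4 with 1 mM MgCl2, giving crude material at 1 mg/mL protein. This was treated with 10 μM compound for 30 min, then heated in aliquots for 3 min over 48°C-58°C before pooling and addition of NP-40 to 0.5% at 4°C. Centrifugation at 21,000xg for 90 min left soluble protein in the supernatant, which TMTpro 16plex LC-MS/MS quantified with equalised channel sums. Results are log-two fold changes in thermal stability compared with solvent controls, from duplicates.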

**Q.** With ATP6V1D (UniProt Q9Y5K8) as the target, how does the log2 fold change read?
**A.** inactive: 0.044

**Q.** For ASB3 isoform 3 (UniProt Q9Y575), which log2 fold change is on record?
**A.** inactive: -0.12

**Q.** With B3GLCT (UniProt Q6Y288) as the target, how does the log2 fold change read?
**A.** inactive: 0.029

**Q.** ATP6V1G1 (UniProt O75348) was tested. Which log2 fold change did it give?
**A.** inactive: 0.009

**Q.** With B3GAT3 (UniProt O94766) as the target, how does the log2 fold change read?
**A.** inactive: -0.029

**Q.** With ASF1B (UniProt Q9NVP2) as the target, how does the log2 fold change read?
**A.** inactive: 0.03

**Q.** For ATPAF1 (UniProt Q5TC12), which log2 fold change is on record?
**A.** inactive: 0.024

**Q.** Which log2 fold change does the source give for ATR (UniProt Q13535) here?
**A.** inactive: -0.061

**Q.** For ATP1B2 (UniProt P14415), which log2 fold change is on record?
**A.** inactive: 0.018

Each target was assayed with CC1=C(SC2=C1C(=N[C@H](C3=NN=C(N32)C)CC(=O)N)C4=CC=C(C=C4)Cl)C in the same assay as above.
In short: as §1

**Q.** ATRN (UniProt O75882) was tested. Which log2 fold change did it give?
**A.** inactive: -0.061

**Q.** ATRX (UniProt P46100) was tested. Which log2 fold change did it give?
**A.** inactive: -0.093

**Q.** How did the log2 fold change turn out when ATP5F1C isoform 2 (UniProt P36542) was run?
**A.** inactive: 0.057

**Q.** How did the log2 fold change turn out when ATAD3A (UniProt Q9NVI7) was run?
**A.** inactive: 0.083

**Q.** How did the log2 fold change turn out when ATP6V0A1 isoform 3 (UniProt Q93050) was run?
**A.** inactive: -0.013

**Q.** How did the log2 fold change turn out when ATG12 (UniProt O94817) was run?
**A.** inactive: -0.006

**Q.** Which log2 fold change does the source give for NA (UniProt B2RBV5) here?
**A.** inactive: -0.113

**Q.** For ATXN2L (UniProt Q8WWM7), which log2 fold change is on record?
**A.** inactive: 0.035

**Q.** For ATG16L1 (UniProt Q676U5), which log2 fold change is on record?
**A.** inactive: -0.006

**Q.** ASNA1 (UniProt O43681) was tested. Which log2 fold change did it give?
**A.** inactive: 0.003

**Q.** ATP1A1 (UniProt P05023) was tested. Which log2 fold change did it give?
**A.** inactive: 0.001

**Q.** ATP5F1B (UniProt F8W079) was tested. Which log2 fold change did it give?
**A.** inactive: -0.255

**Q.** For ATRIP (UniProt Q8WXE1), which log2 fold change is on record?
**A.** inactive: -0.02

**Q.** ATF7IP isoform 4 (UniProt Q6VMQ6) was tested. Which log2 fold change did it give?
**A.** inactive: 0.007

**Q.** For ATAD2B (UniProt Q9ULI0), which log2 fold change is on record?
**A.** inactive: 0.05

**Q.** How did the log2 fold change turn out when ATP6V1B2 (UniProt P21281) was run?
**A.** inactive: 0

**Q.** How did the log2 fold change turn out when ATG14 (UniProt Q6ZNE5) was run?
**A.** inactive: 0.105

**Q.** How did the log2 fold change turn out when AZI2 (UniProt Q9H6S1) was run?
**A.** inactive: -0.196

**Q.** ATXN2 (UniProt Q99700) was tested. Which log2 fold change did it give?
**A.** inactive: 0.016

**Q.** How did the log2 fold change turn out when ATG2A (UniProt Q2TAZ0) was run?
**A.** inactive: 0.012

**Q.** How did the log2 fold change turn out when ASH2L (UniProt Q9UBL3) was run?
**A.** inactive: 0.002

**Q.** With ATXN2L isoform 3 (UniProt Q8WWM7) as the target, how does the log2 fold change read?
**A.** inactive: 0.007

**Q.** How did the log2 fold change turn out when ATL3 (UniProt Q6DD88) was run?
**A.** inactive: -0.021

**Q.** How did the log2 fold change turn out when ATP6V1D (UniProt Q9Y5K8) was run?
**A.** inactive: 0.016

**Q.** For ASB3 isoform 3 (UniProt Q9Y575), which log2 fold change is on record?
**A.** inactive: -0.279

**Q.** How did the log2 fold change turn out when B3GLCT (UniProt Q6Y288) was run?
**A.** inactive: -0.004

**Q.** For ATP6V1G1 (UniProt O75348), which log2 fold change is on record?
**A.** inactive: 0.013

**Q.** Which log2 fold change does the source give for B3GAT3 (UniProt O94766) here?
**A.** inactive: 0.083

**Q.** For ASF1B (UniProt Q9NVP2), which log2 fold change is on record?
**A.** inactive: 0.042

**Q.** For ATPAF1 (UniProt Q5TC12), which log2 fold change is on record?
**A.** inactive: 0.054

**Q.** For ATR (UniProt Q13535), which log2 fold change is on record?
**A.** inactive: -0.036

**Q.** ATP1B2 (UniProt P14415) was tested. Which log2 fold change did it give?
**A.** inactive: 0.033
